Amino acid sequences for entries named in this document (tags omitted). A change or cut given only in a name is not applied to a line headed by its entry.
UniProt P43351: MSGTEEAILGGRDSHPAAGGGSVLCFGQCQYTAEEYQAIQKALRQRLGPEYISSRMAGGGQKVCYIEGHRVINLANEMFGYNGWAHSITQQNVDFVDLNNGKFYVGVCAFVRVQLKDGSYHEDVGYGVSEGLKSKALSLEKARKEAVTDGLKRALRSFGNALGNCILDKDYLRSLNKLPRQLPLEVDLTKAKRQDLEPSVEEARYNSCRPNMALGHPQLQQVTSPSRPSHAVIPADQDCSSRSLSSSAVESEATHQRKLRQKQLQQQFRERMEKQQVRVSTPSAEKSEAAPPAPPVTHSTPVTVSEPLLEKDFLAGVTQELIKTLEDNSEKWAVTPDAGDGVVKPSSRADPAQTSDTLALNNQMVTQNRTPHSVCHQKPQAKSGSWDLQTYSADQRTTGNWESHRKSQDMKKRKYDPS

In PMC7275041:

Key:
RAD52 in cell lysate = RAD52 in cell lysate (UniProt P43351); assay: pull-down; conditions: pull-down: Pierce magnetic RNA-protein pull-down kit, protein in an extract, label: 3'-biotin on RNA, DNA:RNA hybrid, letters put together from the description
His-TRDMT1 (human) = molecular target: T1, His-TRDMT1 (human) (UniProt O14717); assay: pull-down; conditions: pull-down: Pierce magnetic RNA-protein pull-down kit; recombinant protein; protein details: His; label: 3'-biotin on RNA; DNA:RNA hybrid; letters put together from the description
T1 sequence (looked up, limits assumed): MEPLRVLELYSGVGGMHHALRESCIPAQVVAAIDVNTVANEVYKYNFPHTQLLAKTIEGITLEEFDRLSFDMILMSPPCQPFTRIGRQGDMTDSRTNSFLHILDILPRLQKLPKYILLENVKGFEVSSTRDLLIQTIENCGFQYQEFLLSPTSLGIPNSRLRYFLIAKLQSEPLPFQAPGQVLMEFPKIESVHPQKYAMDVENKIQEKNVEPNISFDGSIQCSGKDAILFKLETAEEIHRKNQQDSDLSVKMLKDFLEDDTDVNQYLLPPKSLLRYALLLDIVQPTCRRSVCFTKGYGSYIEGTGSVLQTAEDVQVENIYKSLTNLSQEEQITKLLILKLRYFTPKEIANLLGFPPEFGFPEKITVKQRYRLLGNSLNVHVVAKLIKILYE

RAD52 (hRAD52) (human) = RAD52 (hRAD52) (human) (UniProt P43351); assay: EMSA; conditions: weaker than the m5C hybrid N2, 1 mM Mg2+, source data at top RAD52 level (360, unit not shown): 79.8 and 86.1; EMSA: 25 mM Tris-HCl pH 7.5, 1 mM MgCl2, 1 mM DTT, 50 ug/mL BSA, 50 or 300 mM NaCl and/or 0.5% NP-40, 15 min 37 C, 6% PAGE-TBE at 4 C; recombinant protein; protein details: C-terminal 6xHis (pET28b); label: 5' maleimide-IR800 on oligo 1 (DNA); DNA:RNA hybrid

Sequence: UGACUAAUCGAAGUUGAUACAUCGACGUUA / TAACGTCGATGTATCAACTTCGATTAGTCA [30-bp m5C DNA:RNA hybrid]
- binding result (RAD52 in cell lysate; more efficient capture than unmodified N3, wash with additional 300 mM NaCl and 0.5% NP-40, m5C at all five C of the RNA strand (positions 4, 9, 20, 23, 26)): binds

Sequence: UGACUAAUCGAAGUUGAUACAUCGACGUUA / TAACGTCGATGTATCAACTTCGATTAGTCA [30-bp DNA:RNA hybrid]
- binding result (His-TRDMT1 (human)): binds
- binding result (RAD52 in cell lysate; less efficient capture than m5C hybrid N4, wash with additional 300 mM NaCl and 0.5% NP-40): binds more weakly

Sequence: ATCATCACCATAACGTCGATGTATCAACTTCGATTAGTCACACCAATTAA / UUAAUUGGUGUGACUAAUCGAAGUUGAUACAUCGACGUUAUGGUGAUGAU [50-bp DNA:RNA hybrid (oligo 1/oligo 2)]
- binding result (RAD52 (hRAD52) (human)): binds more weakly

The exact form of at least one protein or probe is not confirmed. For some of these results: Weaker means in comparison with the reference protein, sequence or condition of that experiment. For some of these results: At least one result comes from cells or an extract, where the contact may be indirect. For some of these results: At least one verdict was read from the data and is not stated in words by the source. For some of these results: Where a protein sequence is shown, tags need not be part of it.
